Experimental data: patent publication US10166271B2, “Methods for promoting hair growth” (THE REGENTS OF THE UNIVERSITY OF CALIFORNIA, priority 2006, dated 2019)
Where “and” joins values, the source holds several entries; their conditions need not be identical. Identical values can stand only once.

System: CRF-OE mice
Assay: Adrenal gland, abdominal fat and body weight at sacrifice in female CRF-OE mice after sc injection
Format: in vivo
Settings: for AbdFat (abdominal fat weight), Adjusted/20 g Wt / Adren (adrenal glands weight), Adjusted/20 g Wt / Wt. @ euth (weight on the day of euthanasia): female CRF-OE mice, individual mice and Ave., listed as AB

(cyclo 30-33)[DPhe12, Nle21,38, Cml27,40, Glu30, Lys33]Ac-h/rCRF9-41 [Astressin B]
Effect on adrenal gland and abdominal fat weight compared with saline (CRF-OE mice, at the times of observation): changed neither adrenal gland nor abdominal fat weight compared with saline | AbdFat (abdominal fat weight), Adjusted/20 g Wt (7 days post last injection): 1.5 g (2×) and 1.4 g (2×) and 1.9 g and 1.2 g | Adren (adrenal glands weight), Adjusted/20 g Wt (7 days post last injection): 6.6 mg (2×) and 5.4 mg and 5.7 mg and 4.7 mg and 5.8 mg | Wt. @ euth (weight on the day of euthanasia) (7 days post last injection): 35.6 gm (3×) and 35.5 gm and 40.3 gm and 36.52 gm | AbdFat (abdominal fat weight), Adjusted/20 g Wt (14 days post last injection): 1.3 g (3×) and 1.2 g (3×) | Adren (adrenal glands weight), Adjusted/20 g Wt (14 days post last injection): 6.3 mg and 5.7 mg and 6.8 mg (2×) and 7.4 mg and 6.6 mg | Wt. @ euth (weight on the day of euthanasia) (14 days post last injection): 37.6 gm and 38 gm and 36.1 gm (2×) and 33.3 gm and 36.22 gm
